The list shows a part of the results, in another mix than the full data. At the low end of the ranking the order means little.

The experiment addresses SPI1 (UniProt P17947). As to the kind of experiment: DAPPL (digital affinity profiling via proximity ligation, sequencing). The conditions noted are these: 10 mM Tris-HCl pH 7.5, 50 mM NaCl, 1 mM DTT, 4% glycerol, room temperature, 30 min; GST-TFs on glutathione beads, 16-mer random dsDNA library, 0.1% …; high values mean tight binding; double strand, one strand shown; scale: fold enrichment (6-mer frequency, TF over GST control).
The sequence TACTGC yielded a binding signal of 1.24.

For the sequence TCTTGC, the binding signal came out at 1.28.

In turn, CGCCCG had a binding signal of 0.984.

In turn, CTGTAA showed a binding signal of 1.11.

In turn, TTCCCC yielded a binding signal of 2.54.

CTCAGG: the binding signal came to 1.

In the case of GGTCCT, the binding signal came to 0.937.

Consider CCTATG, for which the binding signal worked out at 1.21.

For the sequence TGAAAC, the binding signal amounted to 1.28.

Consider TAAGCT, for which the binding signal came to 1.1.

Sequence GCTCCT returned a binding signal of 1.4.

GATGGT: the binding signal amounted to 0.989.

CGTTCG: the binding signal came out at 1.1.

ATGTAA came in with a binding signal of 1.23.

CTGCCC showed a binding signal of 1.27.

On to TACGTA, for which the binding signal is 1.35.

For the sequence ATCTAA, the binding signal is 1.13.

For TACCCG, the binding signal is 1.42.

For CCTGGT, the binding signal came out at 1.4.

Turning to CCCCGG, the binding signal worked out at 1.16.

Take ACACTT: the binding signal came out at 1.95.

With CAGAAT, the binding signal is 0.965.

Take GAAGCA: the binding signal stood at 1.28.

With AGCCTC, the binding signal was determined as 1.26.

As for TTATGT, the binding signal was determined as 1.31.

As for GTACTT, the binding signal turned out to be 1.94.

For TATGGT, the binding signal came to 1.28.

The sequence TTCAAG gave a binding signal of 1.2.

Sequence CTGGCC came in with a binding signal of 1.28.

As for CCATAA, the binding signal amounted to 1.17.

Turning to CGAAGC, the binding signal turned out to be 1.2.

GAACTC came in with a binding signal of 1.39.

CTATTC registered a binding signal of 1.29.

Turning to TATTGT, the binding signal amounted to 1.19.

The sequence TCCTTG gave a binding signal of 1.31.

(Values after paper PMC7862700.)
